# Cleaved PARP in drug-treated melanoma cells

Values as published with doi:10.1371/journal.pone.0140310, rounded.

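Human melanoma cell lines in 1,536-well plates were treated with two drugs together for 72 h, then fixed, stained and imaged. The read-out is the fraction of cleaved-PARP-positive nuclei, in % of that fraction in the DMSO control; 200 means twice the control level of this apoptosis marker. Every drug was used at one fixed concentration, the higher of two screened. These are primary screening values without error estimates. Basal and induced levels differ widely between cell lines.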
This is part of the screen, not chosen by result.

Drugs:
selumetinib: Cn1cnc2c(F)c(Nc3ccc(Br)cc3Cl)c(C(=O)NOCCO)cc21 at 0.075 µM
pazopanib: Cc1ccc(Nc2nccc(N(C)c3ccc4c(C)n(C)nc4c3)n2)cc1S(N)(=O)=O at 2 µM
indole-3-carbinol: OCc1c[nH]c2ccccc12 at 4 µM
PF-562271: CN(c1ncccc1CNc1nc(Nc2ccc3c(c2)CC(=O)N3)ncc1C(F)(F)F)S(C)(=O)=O at 0.4 µM
nilotinib: Cc1cn(-c2cc(NC(=O)c3ccc(C)c(Nc4nccc(-c5cccnc5)n4)c3)cc(C(F)(F)F)c2)cn1 at 1 µM
vincristine: CC[C@]1(O)C[C@H]2CN(CCc3c([nH]c4ccccc34)[C@@](C(=O)OC)(c3cc4c(cc3OC)N(C=O)[C@H]3[C@@](O)(C(=O)OC)[C@H](OC(C)=O)[C@]5(CC)C=CCN6CC[C@]43[C@@H]65)C2)C1 at 0.0005 µM
cisplatin: N.N.[Cl][Pt][Cl] at 8 µM
enzastaurin: Cn1cc(C2=C(c3cn(C4CCN(Cc5ccccn5)CC4)c4ccccc34)C(=O)NC2=O)c2ccccc21 at 4 µM
BI-78D3: O=c1[nH]nc(Sc2ncc([N+](=O)[O-])s2)n1-c1ccc2c(c1)OCCO2 at 1 µM
STA-4783: CN(NC(=O)CC(=O)NN(C)C(=S)c1ccccc1)C(=S)c1ccccc1 at 0.03 µM
darinaparsin: C[As](C)SC[C@H](NC(=O)CC[C@H](N)C(=O)O)C(=O)NCC(=O)O at 2 µM
GW441756: Cn1cc(/C=C2\C(=O)Nc3cccnc32)c2ccccc21 at 2 µM
dovitinib: CN1CCN(c2ccc3nc(-c4c(N)c5c(F)cccc5[nH]c4=O)[nH]c3c2)CC1 at 0.5 µM
cediranib: COc1cc2c(Oc3ccc4[nH]c(C)cc4c3F)ncnc2cc1OCCCN1CCCC1 at 2 µM
PD173074: CCN(CC)CCCCNc1ncc2cc(-c3cc(OC)cc(OC)c3)c(NC(=O)NC(C)(C)C)nc2n1 at 0.5 µM
vorinostat: O=C(CCCCCCC(=O)Nc1ccccc1)NO at 0.4 µM
MK-1775: C=CCn1c(=O)c2cnc(Nc3ccc(N4CCN(C)CC4)cc3)nc2n1-c1cccc(C(C)(C)O)n1 at 0.1 µM
CP-690550: C[C@@H]1CCN(C(=O)CC#N)C[C@@H]1N(C)c1ncnc2[nH]ccc12 at 5 µM
lenalidomide: Nc1cccc2c1CN(C1CCC(=O)NC1=O)C2=O (centres undefined) at 5 µM

Pair | WM1716
MK-1775 + STA-4783 | 73.8
indole-3-carbinol + GW441756 | 99.9
nilotinib + PD173074 | 51.5
darinaparsin + selumetinib | 213
MK-1775 + BI-78D3 | 148
pazopanib + lenalidomide | 110
dovitinib + darinaparsin | 435
selumetinib + enzastaurin | 204
PF-562271 + PD173074 | 162
vincristine + pazopanib | 199
indole-3-carbinol + cisplatin | 152
vorinostat + nilotinib | 82.8
darinaparsin + CP-690550 | 126
vorinostat + STA-4783 | 1430
selumetinib + PD173074 | 116
BI-78D3 + lenalidomide | 26.6
BI-78D3 + PD173074 | 77.4
lenalidomide + selumetinib | 96.4
dovitinib + STA-4783 | 105
vincristine + darinaparsin | 16400
CP-690550 + cediranib | 95.8
BI-78D3 + selumetinib | 83.2
vincristine + cisplatin | 46.3
PF-562271 + cisplatin | 204
GW441756 + cediranib | 73.4
darinaparsin + lenalidomide | 169
dovitinib + vorinostat | 107
darinaparsin + enzastaurin | 306
lenalidomide + cisplatin | 159
PF-562271 + CP-690550 | 184
MK-1775 + enzastaurin | 340
dovitinib + MK-1775 | 45.4
pazopanib + PF-562271 | 86.2
darinaparsin + MK-1775 | 279
vincristine + vorinostat | 253
vincristine + dovitinib | 150
STA-4783 + nilotinib | 249
cediranib + vorinostat | 85.8

Repeated from the top, 4 entries:

Pair	WM1716
MK-1775 + STA-4783	73.8
indole-3-carbinol + GW441756	99.9
nilotinib + PD173074	51.5
darinaparsin + selumetinib	213